Results are given in words; binding and its absence hold for the method and conditions named. In cells and extracts the contact can be indirect. A yes stands for co-enrichment or nearness to the bait. Other partners may have been found.
Molecular target: GST-fused Lnp (lunapark) (human) (UniProt Q9C0E8)
Test: affinity purification with mass spectrometry; GST-Lnp immobilised on glutathione Sepharose, incubated with Triton X-100 extract of Sus scrofa brains at 4 °C overnight; eluted with 2 M NaCl; SDS-PAGE, silver staining, bands cut out for mass spectrometry; only the target purified

The chains behind the UniProt entries cited, without tags or fusion partners.
UniProt Q9C0E8: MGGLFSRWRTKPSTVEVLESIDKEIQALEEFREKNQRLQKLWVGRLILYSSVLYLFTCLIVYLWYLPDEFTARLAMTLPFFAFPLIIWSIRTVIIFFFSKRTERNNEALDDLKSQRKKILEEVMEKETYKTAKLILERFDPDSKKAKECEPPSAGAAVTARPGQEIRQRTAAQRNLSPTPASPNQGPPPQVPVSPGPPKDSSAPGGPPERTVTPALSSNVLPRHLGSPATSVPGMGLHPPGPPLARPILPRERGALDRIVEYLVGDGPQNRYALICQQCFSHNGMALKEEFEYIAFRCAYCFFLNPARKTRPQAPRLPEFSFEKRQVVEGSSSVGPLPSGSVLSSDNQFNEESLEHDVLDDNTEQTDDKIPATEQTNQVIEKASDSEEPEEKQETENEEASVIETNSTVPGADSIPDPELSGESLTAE

B1: Cullin-associated and neddylation-dissociated 1 (CAND1) of Sus scrofa brain (protein, UniProt F2Z5R6 1-1229)
chain: MASASYHISNLLEKMTSSDKDFRFMATNDLMTELQKDSIKLDDDSERKVVKNLKLLEDKNGEVQNLAVKCLGPLVSKVKEYQVETIVDTLCTNMLSDKEQLRDISSIGLKTVIGELPPASSGSALAANVCKKITGRLTSAIAKQEDVSVQLEALDIMADMLSRQGGLLVNFHPSILTCLLPQLTSPRLAVRKRTIIALGHLVMSCGNIVFVDLIEHLLSELSKNDSMSTTRTYIQCIAAISRQAGHRIGEYLEKIIPLVVKFCNVDDDELREYCIQAFESFVRRCPKEVYPHVSTIINICLKYLTYDPNYNYDDEDEDENAMDADGGDDDDQGSDDEYSDDDDMSWKVRRAAAKCLDAVVSTRHEMLPEFYKTVSPALISRFKEREENVKADVFHAYLSLLKQTRPVQSWLCDPDAMEQGETPLTMLQSQVPNIVKALHKQMKEKSVKTRQCCFNMLTELVNVLPGALTQHIPVLVPGIIFSLNDKSSSSNLKIDALSCLYVILCNHSPQVFHPHVQALVPPVVACVGDPFYKITSEALLVTQQLVKVIRPLDQPSSFDATPYIKDLFTCTIKRLKAADIDQEVKERAISCMGQIICNLGDNLGSDLPNTLQIFLERLKNEITRLTTVKALTLIAGSPLKIDLRPVLGEGVPILASFLRKNQRALKLGTLSALDILIKNYSDSLTAAMIDAVLDELPPLISESDMHVSQMAISFLTTLAKVYPSSLSKISGSILNELIGLVRSPLLQGGALSAMLDFFQALVVTGTNNLGYMDLLRMLTGPVYSQSTALTHKQSYYSIAKCVAALTRACPKEGPAVVGQFIQDVKNSRSTDSIRLLALLSLGEVGHHIDLSGQLELKSVILEAFSSPSEEVKSAASYALGSISVGNLPEYLPFVLQEITSQPKRQYLLLHSLKEIISSASVVGLKPYVENIWALLLKHCECAEEGTRNVVAECLGKLTLIDPETLLPRLKGYLISGSSYARSSVVTAVKFTISDHPQPIDPLLKNCIGDFLKTLEDPDLNVRRVALVTFNSAAHNKPSLIRDLLDTVLPHLYNETKVRKELIREVEMGPFKHTVDDGLDIRKAAFECMYTLLDSCLDRLDIFEFLNHVEDGLKDHYDIKMLTFLMLVRLSTLCPSAVLQRLDRLVEPLRATCTTKVKANSVKQEFEKQDELKRSAMRAVAALLTIPEAEKSPLMSEFQSQISSNPELAAIFESIQKDSSSTNLESMDTS
In the case of B1, the binding is reported as “binds”.

Source: article PMC6739345, “CAND1 regulates lunapark for the proper tubular network of the endoplasmic reticulum” (Scientific Reports, 2019)
